The whole screen tested about 400,000 compounds, of which about 13,000 (3.2%) were called active. The shares of active, inactive and inconclusive entries below differ from those in the screen. The call rests on the fitted dose curve; in most records, active means well fitted cell-killing curve with a large enough effect; inconclusive means small, poorly fitted or top-dose-only effect, or effect the other way; inactive means flat fitted curve, though single readings scatter. Potencies of inconclusive entries are doubtful fits and often do not repeat.
Experiment: qHTS assay for MDR1-selective chemotherapeutics: Primary screen using the drug-selected MDR subline cells KB-V1; further: nearly all actives have a fitted effect of over 60% in size
Conditions: KB-V1 MDR cells viability, CellTiter-Glo, 72 h; activity change, negative = cytotoxicity: at 46.1 µM (top of the series)
Summary of the method: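 Compound-treated KB-V1 multidrug-resistant cells, 72 h, 37 degrees C; viability by CellTiter-Glo. Fitted qHTS curves give the values.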
On the % scale 0 is the no-effect control and ±100 the full control effect; potency means the concentration at half of the fitted maximal effect.

Compound	Potency	activity change, negative = cytotoxicity
c1ccc(-c2cn3c(n2)-c2ccccc2C3)cc1	active: 10.3 µM	
CC1CCC(NC(=O)CCS(=O)(=O)c2ccc3c(c2)CC(C)N3C(=O)C2CC2)CC1 (stereo unspecified)		inactive: -9.6%
O=C(Nc1nnc(C2CCCO2)s1)c1cccs1 (stereo unspecified)	inconclusive: 2.31 µM [rising, full curve]	
Cc1ccc(-n2c(-c3ccc(Br)cc3)n[nH]c2=S)c(C)c1	inconclusive: 32.6 µM [rising, single point]	
O=C(Cc1ccccc1[N+](=O)[O-])NC1CC1		inactive: 5.91%
CN(CCN1CCOCC1)C(=O)c1cc(COc2ccc(F)cc2Cl)on1		inactive: -27.7%
O=C(Cc1ccc([N+](=O)[O-])cc1)Nc1cccc(C(=O)N2CCCCC2)c1		inactive: -15.2%
COc1ccc(-n2c(SCC(=O)NC3CCCCC3)nc3ccsc3c2=O)cc1	active: 2.06 µM	
COc1cccc(CNC(=O)C(CC(C)C)NS(=O)(=O)c2ccc3c(c2)oc(=O)n3C)c1 (stereo unspecified)		inactive: -10.3%
O=C(O)CC(CC(=O)N1CCN(C(=O)c2ccco2)CC1)c1ccccc1 (stereo unspecified)	inconclusive: 20.6 µM [rising, partial curve]	
CCC1CCCCN1CCCNC(=O)c1[nH]c2ccccc2c1Sc1ccc(Cl)cc1 (stereo unspecified)		inactive: 18.3%
O=C(CSc1nnc(SCc2ccc(Cl)cc2)s1)N1CCN(C(=O)c2ccco2)CC1	inconclusive: 18.4 µM [cytotoxic, partial curve]	
Nc1nc(N)c2[nH]c(-c3ccccc3)nc2n1	inconclusive: 29.1 µM [rising, single point]	
CS(=O)(=O)N(CC(=O)N1CCN(c2cccc(Cl)c2)CC1)c1cccc(F)c1	inconclusive: 18.4 µM [cytotoxic, partial curve, poor fit]	
CC(C)Oc1ccc(C(=O)NCc2cccs2)cc1	inconclusive: 23.1 µM [cytotoxic, single point]	
CCN(CC(=O)NC1CC1)S(=O)(=O)c1ccc(OC)cc1	inconclusive: 16.4 µM [rising, single point]	
CCN(C(=O)CCS(=O)(=O)c1cc2[nH]c(=O)c(=O)[nH]c2cc1C)c1ccccc1		inactive: -13.2%
COc1ccccc1OCc1nnc(SCCN2CCOCC2)o1	inconclusive: 20.6 µM [cytotoxic, partial curve]	
CCOc1ccccc1C(=O)OC(C)C(=O)Nc1ccc(S(=O)(=O)N2CCCC2)cc1 (stereo unspecified)		inactive: -8.1%
CC1CC1C(=O)N1CCN(S(=O)(=O)c2cc(C(F)(F)F)cc(C(F)(F)F)c2)CC1 (stereo unspecified)	inconclusive: 29.1 µM [cytotoxic, single point]	
O=C(Cn1c(=O)c2c(ncn2C2CCCC2)n(Cc2ccccc2)c1=O)N1CCc2ccccc21	inconclusive: 5.17 µM [cytotoxic, partial curve]	

Arranged by heavy-atom count (low to high): some entries from above.
Compound	Potency	activity change, negative = cytotoxicity
O=C(Nc1nnc(C2CCCO2)s1)c1cccs1 (stereo unspecified)	inconclusive: 2.31 µM [rising, full curve]	
COc1ccccc1OCc1nnc(SCCN2CCOCC2)o1	inconclusive: 20.6 µM [cytotoxic, partial curve]	
COc1ccc(-n2c(SCC(=O)NC3CCCCC3)nc3ccsc3c2=O)cc1	active: 2.06 µM	

Reference: PubChem BioAssay AID1347076 (National Center for Advancing Translational Sciences (NCATS), 2019)
